According to PubChem BioAssay AID2685 (National Center for Advancing Translational Sciences (NCATS), 2010):
Some of the results follow. These are further read-outs of the screen, such as a control signal, another cell line or another target. No call is given for them. The list favours compounds with an active or inconclusive main result. Potencies come from curve fits of mixed quality, noted in brackets.

Assay: qHTS Assay for Lipid Storage Modulators in Drosophila S3 Cells;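 as to cell number change: cells counted by Cell Tracker Red CMTPX staining in the red channel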
Conditions: BODIPY lipid droplet fluorescence, 18-24 h; for cell number change: measured here: cell count max response, cells fed with added oleic acid
Outline: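 Drosophila S3 cells loaded with oleic acid (400 uM, as added) and compounds at several concentrations; lipid droplets imaged by 488-nm laser-scanning cytometry, 500–530 nm intensity and object ratio to cell channel. Percent activity normalized to 20 uM Triacsin C.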

[1] = measured here: lipid fluorescence (Fed channel) AC50, cells fed with added oleic acid
[2] = measured here: cell number channel AC50, cells fed with added oleic acid

| SMILES | cell number change [%] | AC50 [1] | AC50 [2] |
| --- | --- | --- | --- |
| COc1c(C(=O)NCCSC(C)(C)C)ccc2ccccc12 | -3.34 | 1.84 µM [rising, partial curve] | – |
| COc1cnc(SCc2ccc(Cl)cc2Cl)nc1Cl | – | 29.1 µM [falling, single point] | – |
| O=C(NNc1ccccn1)C(=O)NNS(=O)(=O)c1ccc(F)cc1 | – | – | 0.651 µM [falling, single point] |
| CCN(C(=O)CN1C(=O)c2ccc([N+](=O)[O-])cc2C1=O)C1CCCCC1 | 25.9 | – | – |
| CC(Cc1c[nH]c2ccccc12)NC(=O)C1CCCNC1=O (stereo not drawn) | 15.9 | – | – |
| CCN(CC(=O)Nc1cc(Cl)ccc1C)C(=O)CCS(=O)(=O)c1ccc(C)cc1 | – | – | 0.0184 µM [rising, full curve, poor fit] |
| O=C(CSc1nc2ccccc2o1)Nc1nc2ccccc2s1 | -45.8 | 0.259 µM [falling, full curve] | 0.326 µM [falling, full curve] |
| COc1ccc(CCc2nc(-c3cccs3)no2)cc1 | -14.6 | 18.4 µM [falling, single point] | – |
| Cc1ccccc1NS(=O)(=O)c1ccc2[nH]cc(C(=O)NCCCN3CCOCC3)c(=O)c2c1 | 38.5 | 6.51 µM [rising, single point] | 23.1 µM [rising, single point] |
| COC(=O)c1ccc(NC(=S)NCCc2ccc(OC)cc2)cc1 | 103 | – | 29.1 µM [rising, partial curve] |
| Cc1ccc(NC2=C(Cl)C(=O)OC2OC(=O)c2ccccc2C)cc1 (stereo not drawn) | -2.91 | – | – |
| CCOc1ccc(NC(=O)COC(=O)CC2CCCCC2)cc1 | -6.01 | 7.31 µM [rising, partial curve, poor fit] | – |
| CCCCc1ccc(/C=C2\C(=O)ON=C2c2ccccc2)s1 | -1.97 | – | – |
| COC(c1ccccc1)c1nnc(CCC(=O)N(C)Cc2cccc(-n3cccn3)c2)o1 (stereo not drawn) | -18.4 | 0.0184 µM [falling, full curve, poor fit] | – |
| O=C(O)c1ccc(N=Nc2c(O)ccc3ncccc23)cc1 | -20.7 | 2.31 µM [falling, partial curve] | – |
| COc1ccc(OC)c(CCNC(=O)c2ccc3c(c2)N(Cc2ccc(F)cc2)CCS3)c1 | -31.2 | 8.2 µM [falling, partial curve] | 6.51 µM [falling, single point] |
| COc1ccc(C(C)(C)C)cc1NC(=O)c1ccc[n+]([O-])c1 | 8.73 | 6.51 µM [rising, full curve] | – |
| CCc1cc(=O)oc2cc(OCC(=O)N3CC[C@@]4(O)CCCC[C@H]4C3)ccc12 | -9.14 | 0.731 µM [falling, full curve] | – |
| COc1cc2c(cc1OC)CC(C(=O)NCc1ccccc1)NC2 (stereo not drawn) | 24.1 | 0.092 µM [rising, full curve, poor fit] | – |
| FC(F)(F)c1cc(CCN2CCNC[C@H]2Cc2cccc3ccccc23)cc(C(F)(F)F)c1 | -85.2 | 20.6 µM [falling, partial curve] | 16.4 µM [falling, partial curve] |

At a glance, part of the list above.

| SMILES | cell number change [%] | AC50 [1] | AC50 [2] |
| --- | --- | --- | --- |
| O=C(O)c1ccc(N=Nc2c(O)ccc3ncccc23)cc1 | -20.7 | 2.31 µM [falling, partial curve] | – |
| COc1ccc(OC)c(CCNC(=O)c2ccc3c(c2)N(Cc2ccc(F)cc2)CCS3)c1 | -31.2 | 8.2 µM [falling, partial curve] | 6.51 µM [falling, single point] |

More structures

| SMILES | cell number change [%] | AC50 [1] | AC50 [2] |
| --- | --- | --- | --- |
| Cc1nc2ccccc2cc1C(=O)N/N=C/c1ccc([N+](=O)[O-])cc1 | 35.9 | 14.6 µM [rising, single point] | 14.6 µM [rising, single point] |
| CCn1c(C)nnc1SCC(=O)Nc1ccc2c(c1)OCCO2 | -8.97 | – | – |
| CC1CC(=O)N(C)c2cc([N+](=O)[O-])ccc2N1 (stereo not drawn) | 15.8 | 6.51 µM [falling, single point] | – |
| COc1cccc(C(=O)N(Cc2nc(-c3ccc(C)cc3)no2)C(C)C)c1 | 23.2 | 18.4 µM [rising, single point] | – |
| O=C1CN(C(=O)/C=C/c2ccco2)c2ccccc2N1 | – | 0.0731 µM [falling, partial curve, poor fit] | 0.0259 µM [falling, full curve, poor fit] |
| CN1CCN(/N=C/c2ccc(C#N)cc2)CC1 | – | – | 4.61 µM [rising, single point] |
| O=C(NC(CO)C(O)c1ccc([N+](=O)[O-])cc1)C(Cl)Cl (stereo not drawn) | -41.5 | – | – |
| Cc1cc(-c2ccccc2)[nH]c(=O)c1S(=O)(=O)c1ccc(Cl)cc1 | -14.9 | 13 µM [falling, partial curve] | – |
| N#Cc1cc([N+](=O)[O-])ccc1NCCN1CCOCC1 | 133 | 29.1 µM [rising, single point] | – |
| CCCN(CC1CC1)c1nc(N)c2c(N)nc(OC)cc2c1C#N | – | 0.411 µM [rising, full curve] | 0.231 µM [rising, full curve] |
| Cc1sc2ncnc(OCC(=O)c3ccc(S(=O)(=O)N4CCCC4)cc3)c2c1C | 9.94 | 20.6 µM [rising, partial curve] | – |
| O=C(CSc1n[nH]c(-c2ccncc2)n1)Nc1ccccc1Cl | 49 | – | 20.6 µM [rising, single point] |
| COc1cc(F)ccc1S(=O)(=O)N1CCN(Cc2ccccc2)CC1 | -2.19 | – | – |
| c1ccc(-c2nc3nonc3c3nc4ccccc4n23)cc1 | -32.7 | – | 32.6 µM [falling, partial curve, poor fit] |
| COc1ccc(-c2cc3nc(C)c(CCC(=O)NC(C)CCc4ccco4)c(C)n3n2)c(OC)c1 (stereo not drawn) | – | – | 2.59 µM [rising, partial curve] |
| CCn1nnnc1SCC(=O)Nc1nnc(C(C)C)s1 | – | 3.66 µM [falling, partial curve] | – |
| Cn1c(=O)n(C)c2cc(NC(=O)c3ccc(F)cc3)c(Br)cc21 | -13.8 | 6.51 µM [falling, single point] | – |
| O=C1/C(=C/c2ccc(C(=O)O)cc2)CCC/C1=C\c1ccc(C(=O)O)cc1 | -51.3 | – | 29.1 µM [falling, single point] |
| O=C(COC(=O)/C=C/c1ccc([N+](=O)[O-])cc1)NC(c1ccccc1)c1ccccc1 | -9.21 | 18.4 µM [rising, single point] | 6.51 µM [rising, single point] |
| Nc1ccc(C(=O)Nc2ccc3nc(-c4cccnc4)[nH]c3c2)cc1 | -32.4 | 29.1 µM [falling, single point] | 32.6 µM [falling, single point] |

| SMILES | cell number change [%] | AC50 [1] | AC50 [2] |
| --- | --- | --- | --- |
| O=C(NCCN1CCN(Cc2ccccc2Cl)CC1)Nc1ccccc1 | -54.2 | 29.1 µM [falling, single point] | 29.1 µM [falling, single point] |
| CC(=O)N/N=C/c1cc2c(cc1[N+](=O)[O-])OCO2 | – | 0.116 µM [rising, single point] | 0.164 µM [rising, single point] |
| CCOC(=O)N1CCC(NC(=O)C2CCN(C(=O)N3CC(C)Oc4ccccc43)CC2)CC1 (stereo not drawn) | -2.19 | 6.51 µM [falling, single point] | – |
| O=C(COC(=O)Cc1n[nH]c(=O)c2ccccc12)NNC(=O)c1ccc(Cl)cc1 | -6.87 | 1.84 µM [rising, partial curve, poor fit] | – |
| Cc1ccc(-c2nc3ncccc3o2)cc1NC(=O)c1cc2ccccc2o1 | 13 | 0.13 µM [rising, full curve, poor fit] | – |
| COC(=O)c1ccccc1NC(=O)C(C)c1ccc([N+](=O)[O-])cc1 (stereo not drawn) | 16.5 | – | – |
| Cc1nc2ccccc2nc1OCC(=O)Nc1ccc(F)cc1 | 10.5 | – | 0.00461 µM [rising, full curve, poor fit] |
| O=[N+]([O-])c1ccc(-c2nc(Nc3ccc(O)cc3)c3ccccc3n2)cc1 | -84.2 | 16.4 µM [falling, single point] | 23.1 µM [falling, partial curve] |
| Cc1c(C(=O)O)oc2c1ccc1ccccc12 | -61.7 | – | 29.1 µM [falling, single point] |
| O=C(Cc1coc2ccc3ccccc3c12)NC1CCCc2ccccc21 (stereo not drawn) | -17.4 | 18.4 µM [falling, partial curve] | – |
| CCn1cc(CNC(=O)C2CCC(=O)N(Cc3ccc(Cl)cc3)C2)cn1 (stereo not drawn) | 17.5 | 0.58 µM [falling, single point] | – |
| O=C1CN(C(=O)COC(=O)/C=C/c2ccc(S(=O)(=O)N3CCOCC3)cc2)c2ccccc2N1 | -1.02 | – | – |
| Cc1ccc(-c2nnc(SCC(=O)Nc3ccc4c(c3)oc3ccccc34)n2C)c(Cl)c1 | – | 2.31 µM [rising, partial curve] | 1.64 µM [rising, partial curve] |
| CCCNC(=O)N1CCC(c2ccc3c(c2)OCO3)CC1 | -18.9 | 32.6 µM [falling, single point] | – |
| CC1(C)C2CCC1(CS(=O)(=O)Nc1ccc(S(=O)(=O)N3CCCCC3)cc1)C(=O)C2 (stereo not drawn) | -16.4 | 0.651 µM [falling, full curve] | – |
| COc1ccccc1CN1CC(C(=O)NCc2cccc(C)n2)CCC1=O (stereo not drawn) | -6.49 | – | – |
| COc1ccccc1NC(=O)CN(c1ccc(C23CC4CC(CC(C4)C2)C3)cc1)S(C)(=O)=O | 11.7 | 0.103 µM [falling, full curve, poor fit] | – |
| COc1cc(=O)n(C)c2c(O)cccc12 | 0.265 | 0.0731 µM [falling, full curve, poor fit] | – |
| CCOc1ccc(NC(=O)Cn2nnc(-c3ccccc3NC(=O)CC)n2)cc1 | -14.9 | 6.51 µM [rising, single point] | – |
| Cc1onc(-c2ccccc2Cl)c1C(=O)N1CCC(Cc2ccccc2)CC1 | -23.6 | 29.1 µM [falling, single point] | – |
